# In the supplement of paper PMC3334620:
# In all, about 33,000 sequences were measured (“E-score (-0.5 to 0.5)”: median about -0.016, highest 2% from about 0.3 on). The list shows a part of the results.
# Target: T1, Yer184c (UniProt P39961)
# T1 sequence: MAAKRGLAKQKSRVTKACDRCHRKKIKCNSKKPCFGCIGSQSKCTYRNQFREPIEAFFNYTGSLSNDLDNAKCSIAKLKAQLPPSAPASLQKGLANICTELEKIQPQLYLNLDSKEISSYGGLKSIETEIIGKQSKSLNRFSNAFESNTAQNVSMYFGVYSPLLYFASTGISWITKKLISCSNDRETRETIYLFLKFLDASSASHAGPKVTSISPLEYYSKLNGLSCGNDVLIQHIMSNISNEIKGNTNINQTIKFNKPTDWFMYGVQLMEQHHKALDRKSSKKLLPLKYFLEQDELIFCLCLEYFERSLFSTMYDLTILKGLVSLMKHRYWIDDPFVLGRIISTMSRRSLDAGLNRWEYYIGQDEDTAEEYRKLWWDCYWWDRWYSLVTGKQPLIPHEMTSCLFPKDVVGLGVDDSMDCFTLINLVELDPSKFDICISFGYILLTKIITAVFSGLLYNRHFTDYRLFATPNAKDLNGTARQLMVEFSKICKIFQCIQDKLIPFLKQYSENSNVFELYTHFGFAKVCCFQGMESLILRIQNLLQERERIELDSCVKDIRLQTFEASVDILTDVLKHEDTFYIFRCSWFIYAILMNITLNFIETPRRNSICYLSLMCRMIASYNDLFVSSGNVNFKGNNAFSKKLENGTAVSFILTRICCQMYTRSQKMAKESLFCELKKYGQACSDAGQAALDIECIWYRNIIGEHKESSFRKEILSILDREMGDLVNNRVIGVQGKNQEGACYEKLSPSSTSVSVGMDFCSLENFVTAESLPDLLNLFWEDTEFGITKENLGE
# Assay: PBM E-score (8-mer binding enrichment) (E-score (-0.5 to 0.5)); higher = stronger / more preferred TF binding
# Conditions: protein concentration: 100 nM; construct: GST-full length
# In short: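 Detection of bound protein used fluorescent anti-GST, with scans normalised by masliner. The proteins were GST-tagged yeast transcription factors applied at about 100-200 nM to universal all-10-mer Agilent arrays made double-stranded by primer extension. Each ungapped eight-base word, pooled with its reverse complement, was scored with an E-score from the Universal PBM Analysis Suite.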
row,Sequence,PBM E-score
1,ATACCATA,0.0874
2,TGGACGAA,-0.0388
3,ACGCCCGT,-0.0275
4,CGTTGAGC,0.0226
5,AAATAACT,0.157
6,CGACACCG,0.0884
7,AGCTATGG,-0.148
8,CATTAAGG,0.0365
9,ACCCCCAT,-0.326
10,ATATGTCC,0.15
11,CTTCCTAA,0.0375
12,CCGCACTA,0.157
13,CGTGGGAG,-0.105
14,CCGAACCC,0.0527
15,TAATCCAA,0.0954
16,CCCCAAAC,-0.273
17,ACTCGAAG,-0.0946
18,CCCTCTCA,-0.405
19,CCCGAGTA,0.0836
20,ACTCTGTC,-0.139
21,GCCACGAA,-0.16
22,ATACTTTC,0.171

row,Sequence,PBM E-score
1,CTTGATAA,0.143
2,GTCAGCAC,-0.0139
3,CGCTCGCA,0.233
4,AAAACAGA,0.101
5,CTGACGGC,0.00591
6,AATTACGC,-0.0695
7,AGGCAAAA,-0.0228
8,ATCACAGA,0.0351
9,AGCCAGAT,-0.0568
10,GGAACTAA,0.136
11,ACCGAGAG,0.147
12,AACGGACC,0.185
13,CCGAAGAG,0.243
14,GGGCGTGA,-0.0872
15,GCCGCTTA,0.155
16,TATACAAA,0.257
17,GTCGACAA,0.0101
18,CCAATGAG,-0.208
19,AGCTGTCG,-0.0677
20,ACAAGTTC,-0.0315
21,AGAAGGAA,-0.139
22,AGCGTTAA,-0.117

row,Sequence,PBM E-score
1,ACGTGTTA,0.0294
2,AGATAGCA,-0.0331
3,GACTTTAC,0.0813
4,CTAGGCGA,-0.151
5,ATTGTTCA,0.112
6,ACGGGAAC,0.152
7,CGATAGTA,-0.0758
8,CTGTTTGC,-0.0666
9,CTACATGA,-0.0436
10,CGATTGAA,0.0258
11,TAGCGCGA,0.0853
12,AGGCCACG,-0.158
13,ATCAGAGA,-0.113
14,AATCACTC,-0.131
15,CATTCTAA,0.204
16,ACGCACCA,0.00654
17,TACTATCA,0.162
18,ACCCGCGT,-0.0424
19,CATATACC,-0.104
20,GTTTCGCA,-0.0906
21,GGGGCAGA,-0.123
22,GAAGTGTC,0.135

# Random excerpt: four records from the list
row,Sequence,PBM E-score
4,CTAGGCGA,-0.151
6,ACGGGAAC,0.152
14,AATCACTC,-0.131
18,ACCCGCGT,-0.0424

# More results.

row,Sequence,PBM E-score
1,ACTGAGTG,0.0663
2,AGGTTTCA,0.03
3,ACTAAGCA,-0.0402
4,CCTGCTGC,-0.143
5,AGTAGGAC,-0.121
6,TGCCACCA,-0.432
7,ACGTTAAG,-0.135
8,ACTGATAG,-0.00572
9,ACCTAAGC,-0.064
10,CGGATACC,0.206
11,AGATCAGA,-0.104
12,CGTTCTCC,-0.104
13,GGTGCTCA,-0.104
14,AATCTAGA,-0.127
15,CGGACCGC,0.104
16,AGAAGCAC,-0.123
17,ATCTAACG,0.111
18,AGCCGACT,-0.00308
19,TCTGGGCA,0.0692
20,ACAAACAG,0.0772
